## Assay results

By UniProt entry, the sequences of proteins in these tests, tags left out.
UniProt O94782, whole entry, looked up, target on record: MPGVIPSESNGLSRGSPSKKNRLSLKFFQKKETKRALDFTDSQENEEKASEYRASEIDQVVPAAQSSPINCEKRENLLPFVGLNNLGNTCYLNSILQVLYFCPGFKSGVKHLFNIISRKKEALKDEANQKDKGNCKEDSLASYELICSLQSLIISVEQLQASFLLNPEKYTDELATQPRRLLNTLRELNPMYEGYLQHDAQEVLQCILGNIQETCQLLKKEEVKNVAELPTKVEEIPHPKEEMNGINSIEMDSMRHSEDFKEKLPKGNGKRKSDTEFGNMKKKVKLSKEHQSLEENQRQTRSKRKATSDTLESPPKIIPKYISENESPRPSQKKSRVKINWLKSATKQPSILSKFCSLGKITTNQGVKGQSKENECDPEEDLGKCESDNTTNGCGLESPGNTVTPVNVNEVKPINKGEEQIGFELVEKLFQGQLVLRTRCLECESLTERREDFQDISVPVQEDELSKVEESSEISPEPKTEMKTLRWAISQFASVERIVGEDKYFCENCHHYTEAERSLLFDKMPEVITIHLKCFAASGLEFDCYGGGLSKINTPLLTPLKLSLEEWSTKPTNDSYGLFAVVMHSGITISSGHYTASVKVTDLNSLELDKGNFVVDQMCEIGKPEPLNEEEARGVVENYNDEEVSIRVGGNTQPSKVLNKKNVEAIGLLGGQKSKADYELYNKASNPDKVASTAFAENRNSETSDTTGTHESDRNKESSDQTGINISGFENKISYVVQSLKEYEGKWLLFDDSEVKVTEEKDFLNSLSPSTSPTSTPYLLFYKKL

Source: PubChem BioAssay AID504865 (NCATS, 2011).

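Fluorescent signal from cleaved Ub-rhodamine measures how much the isolated USP1/UAF1 deubiquitinase is inhibited, recorded over roughly six minutes. Compounds were titrated over 13 concentrations from about 0.0037 µM up to roughly 110 µM, the top dose varying by compound. The value is the fitted AC50 from the dose-response series, and a lower number means a more potent inhibitor. Calls come from curve class and fitted log AC50: scores 40-100 are active, 1-39 inconclusive (as here, weak, partial or poorly fitted curves), and 0 inactive.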

Values are in µM. All entries here are filed as inconclusive. Only part of the assay is shown, chiefly results filed as inconclusive. A potency from a partial, single-point or poor curve is only a rough figure. Some entries filed as inconclusive have a full curve. Activity scores are not listed here.

CC1(C(=O)O)CCC2(C)CCC3(C)C(=CC(=O)C4C5(C)CCC(O)C(C)(C)C5CCC43C)C2C1 (centres unmarked) gave Potency 79.43 µM (inhibitor, partial curve). For CC(C)C[C@@H](NC(=O)OCC1c2ccccc2-c2ccccc21)C(=O)O the result was Potency 63.1 µM (inhibitor, partial curve, poor fit). NS(=O)(=O)c1cc2c(cc1C(F)(F)F)N[C@H](Cc1ccccc1)NS2(=O)=O read Potency 39.81 µM (inhibitor, partial curve, poor fit). Result for NC1CCN(c2nc3c(cc2F)c(=O)c(C(=O)O)cn3-c2ccc(F)cc2F)C1 (centres unmarked) was Potency 63.1 µM (inhibitor, single point).

Result for Clc1ccc(COC(Cn2ccnc2)c2ccc(Cl)cc2Cl)c(Cl)c1 (centres unmarked) was Potency 56.23 µM (inhibitor, partial curve, poor fit). CCCCCCCCCCCCCCNCCO gave Potency 56.23 µM (inhibitor, partial curve). COc1cc2c(Cc3c4c5c(cc(OC)c(OC)c5c5c(OC)c(OC)ccc35)CCN4C)c3c4c(cc(OC)c(OC)c4c2cc1OC)CCN3C read Potency 6.31 µM (inhibitor, full curve, poor fit). C=C1C2CC[C@@]3(C)C(c4ccoc4)OC(=O)C[C@@]13OC1CC(O)C(C)(C)C(CC(=O)OC)[C@@]12C (some centres unmarked) gave Potency 112.2 µM (inhibitor, partial curve, poor fit).

With CC(=O)C1=C(O)C2C3c4c[nH]c5cccc(c45)CC3C(C)(C)N2C1=O (centres unmarked) the assay gave Potency 56.23 µM (inhibitor, partial curve, poor fit). For O=C1CN=C(c2ccccc2)c2cc(Cl)ccc2N1CC1CC1 the result was Potency 70.79 µM (inhibitor, partial curve, poor fit). CC1(C)C(=O)C=C[C@@]2(C)C1C=C[C@@]1(C)C2CC[C@@]2(C)C(c3ccoc3)OC(=O)C3OC312 (some centres unmarked) gave Potency 25.12 µM (inhibitor, partial curve). Result for CN(C(=O)Cc1ccc(Cl)c(Cl)c1)[C@H](CN1CCCC1)c1ccccc1 was Potency 10 µM (inhibitor, partial curve, poor fit).

CN1CCN(c2ncc3nc(-c4cn(C)c5ccccc45)c(=O)n(-c4ccccc4)c3n2)CC1 read Potency 19.95 µM (inhibitor, partial curve, poor fit). With CCCCCCCCCCCCCCCCCCc1ccc(C(=O)/C=C\C(=O)O)cc1 the assay gave Potency 70.79 µM (inhibitor, partial curve). With O=C1C[C@@H](c2ccc(O)cc2)Oc2cc(O)cc(O)c21 the assay gave Potency 39.81 µM (inhibitor, partial curve, poor fit). For CCN(CC)CCNC(=O)c1cc(S(C)(=O)=O)ccc1OC the result was Potency 9.466 µM (inhibitor, partial curve, poor fit).

CCN[C@@H]1C[C@H](N)[C@H](O[C@H]2OC(CN)=CC[C@H]2N)[C@@H](O)[C@H]1O[C@H]1OC[C@@](C)(O)[C@@H](NC)[C@@H]1O read Potency 35.48 µM (inhibitor, partial curve). Nc1nc2c(ncn2C2OC(COC(=O)c3ccccc3)C(OC(=O)c3ccccc3)C2OC(=O)c2ccccc2)c(=O)[nH]1 (centres unmarked) gave Potency 10 µM (inhibitor, partial curve, poor fit). Result for Clc1cccc(Nc2nnc(-c3ccccc3)c3ccccc23)c1 was Potency 50.12 µM (inhibitor, partial curve, poor fit). For C#CCCCCCCCCCCCC(O)CC(O)COC(C)=O (centres unmarked) the result was Potency 50.12 µM (inhibitor, partial curve, poor fit).

COc1ccc(CCn2nnnc2C2(c3ccc(C)cc3)CC2)cc1 gave Potency 23.78 µM (inhibitor, partial curve, poor fit). For CCC(C(=O)C(C)C(O)C(C)CCc1ccc(C)c(O)c1C(=O)O)C1OC(CC)(C2CC[C@@](O)(CC)C(C)O2)CC1C (some centres unmarked) the result was Potency 50.12 µM (inhibitor, partial curve). CC(C)=CCCC1(C)C=Cc2c(O)c3c(c(CC=C(C)C)c2O1)OC12C(CC4CC1C(C)(C)OC2(C/C=C(/C)C(=O)O)C4O)C3=O (centres unmarked) gave Potency 39.81 µM (inhibitor, partial curve). Result for CCCCCCC(C)OC(=O)COc1ccc(Cl)cc1Cl (centres unmarked) was Potency 44.67 µM (inhibitor, partial curve, poor fit).

For CC(C)(C)NC(=O)[C@@H]1C[C@@H]2CCCC[C@@H]2CN1C[C@@H](O)[C@H](Cc1ccccc1)NC(=O)[C@H](CC(N)=O)NC(=O)c1ccc2ccccc2n1 the result was Potency 44.67 µM (inhibitor, partial curve). C[C@@H]1CC2[C@@H]3C[C@H](F)C4=CC(=O)C(Cl)=C[C@]4(C)[C@@]3(F)[C@H](O)C[C@]2(C)[C@@]1(O)C(=O)CO (some centres unmarked) gave Potency 100 µM (inhibitor, partial curve, poor fit). CCCCCCCC/C=C\CCCCCCCC(N)=O read Potency 10 µM (inhibitor, full curve).

For reference, 3 entries once more:

Compound,Potency (µM),curve
O=C1CN=C(c2ccccc2)c2cc(Cl)ccc2N1CC1CC1,70.79,"inhibitor, partial curve, poor fit"
NC1CCN(c2nc3c(cc2F)c(=O)c(C(=O)O)cn3-c2ccc(F)cc2F)C1 (centres unmarked),63.1,"inhibitor, single point"
C#CCCCCCCCCCCCC(O)CC(O)COC(C)=O (centres unmarked),50.12,"inhibitor, partial curve, poor fit"